{"sequences": {"note": "The chains behind the UniProt entries cited, without tags or fusion partners. Where a name states a change or a piece, a line headed by the entry shows the natural chain unless it says otherwise.", "UniProt P36741": "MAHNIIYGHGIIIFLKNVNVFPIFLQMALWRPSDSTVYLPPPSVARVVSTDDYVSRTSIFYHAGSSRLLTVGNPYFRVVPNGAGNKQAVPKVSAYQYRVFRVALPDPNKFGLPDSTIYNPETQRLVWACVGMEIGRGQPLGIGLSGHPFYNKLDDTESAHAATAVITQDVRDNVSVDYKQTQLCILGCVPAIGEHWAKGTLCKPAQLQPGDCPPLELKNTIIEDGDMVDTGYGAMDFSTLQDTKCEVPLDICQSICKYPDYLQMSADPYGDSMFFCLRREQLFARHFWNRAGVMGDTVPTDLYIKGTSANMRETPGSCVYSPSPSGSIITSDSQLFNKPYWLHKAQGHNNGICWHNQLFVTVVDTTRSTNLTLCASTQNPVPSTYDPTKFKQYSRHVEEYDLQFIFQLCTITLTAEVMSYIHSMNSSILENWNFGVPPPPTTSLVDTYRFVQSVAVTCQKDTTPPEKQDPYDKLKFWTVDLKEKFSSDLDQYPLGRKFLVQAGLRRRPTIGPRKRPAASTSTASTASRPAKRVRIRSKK", "UniProt P03101": "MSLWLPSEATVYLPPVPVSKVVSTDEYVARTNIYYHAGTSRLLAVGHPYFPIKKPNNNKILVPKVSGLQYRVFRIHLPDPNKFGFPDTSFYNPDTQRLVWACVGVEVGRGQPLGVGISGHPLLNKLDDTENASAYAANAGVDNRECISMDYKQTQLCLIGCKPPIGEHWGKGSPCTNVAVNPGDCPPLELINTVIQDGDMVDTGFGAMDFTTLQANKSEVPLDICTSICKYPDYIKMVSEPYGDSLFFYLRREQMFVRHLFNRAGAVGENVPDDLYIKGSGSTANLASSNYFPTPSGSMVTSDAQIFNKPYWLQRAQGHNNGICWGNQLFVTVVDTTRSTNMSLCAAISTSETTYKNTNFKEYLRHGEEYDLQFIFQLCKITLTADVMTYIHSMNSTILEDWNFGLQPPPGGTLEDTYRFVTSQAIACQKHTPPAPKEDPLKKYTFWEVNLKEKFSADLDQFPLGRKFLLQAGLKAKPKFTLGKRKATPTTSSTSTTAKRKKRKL", "UniProt A0A3L7I2J9": "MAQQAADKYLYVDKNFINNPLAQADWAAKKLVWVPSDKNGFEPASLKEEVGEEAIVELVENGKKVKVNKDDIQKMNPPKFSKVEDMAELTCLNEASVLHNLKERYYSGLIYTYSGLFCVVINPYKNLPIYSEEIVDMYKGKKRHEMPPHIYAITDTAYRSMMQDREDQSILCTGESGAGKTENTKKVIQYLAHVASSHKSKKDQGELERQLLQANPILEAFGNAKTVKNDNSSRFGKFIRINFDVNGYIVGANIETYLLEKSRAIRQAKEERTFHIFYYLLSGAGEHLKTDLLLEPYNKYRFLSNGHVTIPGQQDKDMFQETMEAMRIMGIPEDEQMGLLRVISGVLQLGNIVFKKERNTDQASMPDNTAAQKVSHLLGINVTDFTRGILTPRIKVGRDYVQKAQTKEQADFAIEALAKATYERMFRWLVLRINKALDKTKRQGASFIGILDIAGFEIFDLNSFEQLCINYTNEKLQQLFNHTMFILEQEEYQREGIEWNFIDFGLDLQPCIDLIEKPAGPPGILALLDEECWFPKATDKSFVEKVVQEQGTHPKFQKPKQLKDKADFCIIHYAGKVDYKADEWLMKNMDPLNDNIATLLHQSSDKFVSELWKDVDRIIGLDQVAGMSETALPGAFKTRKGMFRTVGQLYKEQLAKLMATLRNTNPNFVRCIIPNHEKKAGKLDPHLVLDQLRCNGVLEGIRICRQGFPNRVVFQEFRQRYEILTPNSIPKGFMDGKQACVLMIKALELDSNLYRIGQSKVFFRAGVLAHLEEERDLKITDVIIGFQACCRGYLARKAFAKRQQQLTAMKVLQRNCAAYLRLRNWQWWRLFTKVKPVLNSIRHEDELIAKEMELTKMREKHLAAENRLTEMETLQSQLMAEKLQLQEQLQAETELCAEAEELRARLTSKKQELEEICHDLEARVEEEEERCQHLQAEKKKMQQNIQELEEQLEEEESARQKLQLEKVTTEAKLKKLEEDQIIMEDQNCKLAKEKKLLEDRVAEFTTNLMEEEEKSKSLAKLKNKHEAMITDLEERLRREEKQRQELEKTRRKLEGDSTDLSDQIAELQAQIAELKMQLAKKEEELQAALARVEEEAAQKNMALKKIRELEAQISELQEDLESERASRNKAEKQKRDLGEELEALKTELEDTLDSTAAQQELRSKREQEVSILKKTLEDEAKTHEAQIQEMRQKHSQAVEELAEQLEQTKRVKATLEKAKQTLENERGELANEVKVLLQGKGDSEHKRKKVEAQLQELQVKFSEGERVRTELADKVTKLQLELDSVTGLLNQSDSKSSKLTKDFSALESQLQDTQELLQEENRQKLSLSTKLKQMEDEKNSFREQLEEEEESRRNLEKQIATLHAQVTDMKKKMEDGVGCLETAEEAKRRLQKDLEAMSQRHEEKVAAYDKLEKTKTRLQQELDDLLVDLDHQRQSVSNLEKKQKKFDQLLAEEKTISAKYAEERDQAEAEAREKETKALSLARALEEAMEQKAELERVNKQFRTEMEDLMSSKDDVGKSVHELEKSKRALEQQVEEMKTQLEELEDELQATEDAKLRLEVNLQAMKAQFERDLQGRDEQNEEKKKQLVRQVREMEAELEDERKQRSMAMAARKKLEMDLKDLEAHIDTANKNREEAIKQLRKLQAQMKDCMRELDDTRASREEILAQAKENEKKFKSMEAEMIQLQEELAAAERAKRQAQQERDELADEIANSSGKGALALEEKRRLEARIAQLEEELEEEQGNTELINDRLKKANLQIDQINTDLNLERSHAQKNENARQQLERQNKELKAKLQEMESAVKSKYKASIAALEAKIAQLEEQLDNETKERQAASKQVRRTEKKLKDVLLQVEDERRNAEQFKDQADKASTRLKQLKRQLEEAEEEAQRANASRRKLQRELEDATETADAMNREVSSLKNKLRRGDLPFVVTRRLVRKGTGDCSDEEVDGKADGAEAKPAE"}, "source": "paper PMC10865405", "key": {"[1]": {"target": "HPV45 pseudoviruses (PsVs) (human papillomavirus type 45) (UniProt P36741)", "experiment": "co-IP; cell lysates of Lec1 cells incubated with HPV45 or HPV16 PsVs (100 μl, 10^4 RLU/μl) for 90 min, then with anti-L1 antibody coupled protein A/G magnetic beads for 90 min; L1 and myosin-9 on the beads by Western blot; only the target purified"}, "[2]": {"target": "HPV16 pseudoviruses (PsVs) (human papillomavirus type 16) (UniProt P03101)", "experiment": "co-IP; cell lysates of Lec1 cells incubated with HPV45 or HPV16 PsVs (100 μl, 10^4 RLU/μl) for 90 min, then with anti-L1 antibody coupled protein A/G magnetic beads for 90 min; L1 and myosin-9 on the beads by Western blot; only the target purified"}}, "note": "These are yes or no findings as the source states them, for the method shown. In cells and extracts the contact can be indirect. Some results given as binding are weak or reduced against the parent protein; the word gives no strength."}
{"substance": "Chinese hamster myosin-9 (NMHC-IIA) (from UniProt A0A3L7I2J9 1-1960)", "values": [{"measurement": "binding", "setting": "[1]", "value": "binds"}, {"measurement": "binding", "setting": "[2]", "value": "binds"}]}
